Laboratory results as given in the supplement of paper PMC7661543.
The effect of the compound repeats well; differences between the knockouts mostly do not.

Test system: HCC-38
Assay: relative cell number vs DMSO control (72 h) (% of DMSO); higher = less growth inhibition (more cells)
Description: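 QMAP-Seq: a pool of 5 breast cancer cell lines (ZR-75-1, SKBR3, HCC-38, MDA-MB-231, BT-20), each carrying 12 doxycycline-inducible Cas9 sgRNA perturbations (11 knockouts plus non-targeting sgNT), was treated with compounds for 72 h at four 10-fold doses (10 nM-10 uM or 1 nM-1 uM range). Barcodes were amplified and sequenced, and cell number was interpolated from 293T spike-in standard curves. The result is expressed as % of the median of DMSO wells. Two biological replicates.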

CC(C)C[C@H](NC(=O)CNC(=O)c1cc(Cl)ccc1Cl)B(O)O [MLN2238]
Settings	relative cell number
sgRNA knockout: sgATF3, 10 nM	96.5
sgRNA knockout: sgATF3, 100 nM	58.1
sgRNA knockout: sgATF3, 1000 nM	8.52
sgRNA knockout: sgATF3, 10000 nM	5.52
sgRNA knockout: sgATF4, 10 nM	82.2
sgRNA knockout: sgATF4, 100 nM	51
sgRNA knockout: sgATF4, 1000 nM	5.95
sgRNA knockout: sgATF4, 10000 nM	4.74
sgRNA knockout: sgATF6, 10 nM	84.8
sgRNA knockout: sgATF6, 100 nM	50.4
sgRNA knockout: sgATF6, 1000 nM	9.26
sgRNA knockout: sgATF6, 10000 nM	3.65
sgRNA knockout: sgATG7, 10 nM	94.1
sgRNA knockout: sgATG7, 100 nM	58.9
sgRNA knockout: sgATG7, 1000 nM	9.09
sgRNA knockout: sgATG7, 10000 nM	6.67
sgRNA knockout: sgERN1, 10 nM	90.2
sgRNA knockout: sgERN1, 100 nM	50.9
sgRNA knockout: sgERN1, 1000 nM	6.6
sgRNA knockout: sgERN1, 10000 nM	3.71
sgRNA knockout: sgHSF1, 10 nM	84.3
sgRNA knockout: sgHSF1, 100 nM	41.9
sgRNA knockout: sgHSF1, 1000 nM	9.63
sgRNA knockout: sgHSF1, 10000 nM	5.42
sgRNA knockout: sgHSF2, 10 nM	96.71
sgRNA knockout: sgHSF2, 100 nM	62.2
sgRNA knockout: sgHSF2, 1000 nM	8.56
sgRNA knockout: sgHSF2, 10000 nM	4.29
sgRNA knockout: sgKEAP1, 10 nM	78.7
sgRNA knockout: sgKEAP1, 100 nM	57.7
sgRNA knockout: sgKEAP1, 1000 nM	6.76
sgRNA knockout: sgKEAP1, 10000 nM	6
sgRNA knockout: sgNFE2L2, 10 nM	77
sgRNA knockout: sgNFE2L2, 100 nM	44
sgRNA knockout: sgNFE2L2, 1000 nM	5.06
sgRNA knockout: sgNFE2L2, 10000 nM	3.57
sgRNA knockout: sgSLC35F2, 10 nM	96
sgRNA knockout: sgSLC35F2, 100 nM	53.2
sgRNA knockout: sgSLC35F2, 1000 nM	7.12
sgRNA knockout: sgSLC35F2, 10000 nM	5.39
sgRNA knockout: sgXBP1, 10 nM	75.3
sgRNA knockout: sgXBP1, 100 nM	41
sgRNA knockout: sgXBP1, 1000 nM	5.073
sgRNA knockout: sgXBP1, 10000 nM	4.43

COc1cc(-n2c(=S)[nH]c3ccccc3c2=O)c(Cl)cc1Cl [Mdivi1]
Settings	relative cell number
sgRNA knockout: sgATF3, 10 nM	101
sgRNA knockout: sgATF3, 100 nM	91.4
sgRNA knockout: sgATF3, 1000 nM	95.8
sgRNA knockout: sgATF3, 10000 nM	82.5
sgRNA knockout: sgATF4, 10 nM	105
sgRNA knockout: sgATF4, 100 nM	104
sgRNA knockout: sgATF4, 1000 nM	94.4
sgRNA knockout: sgATF4, 10000 nM	78.4
sgRNA knockout: sgATF6, 10 nM	107
sgRNA knockout: sgATF6, 100 nM	105
sgRNA knockout: sgATF6, 1000 nM	105
sgRNA knockout: sgATF6, 10000 nM	87.8
sgRNA knockout: sgATG7, 10 nM	97.4
sgRNA knockout: sgATG7, 100 nM	102
sgRNA knockout: sgATG7, 1000 nM	102
sgRNA knockout: sgATG7, 10000 nM	79.3
sgRNA knockout: sgERN1, 10 nM	81.5
sgRNA knockout: sgERN1, 100 nM	95.04
sgRNA knockout: sgERN1, 1000 nM	103
sgRNA knockout: sgERN1, 10000 nM	80.3
sgRNA knockout: sgHSF1, 10 nM	78.1
sgRNA knockout: sgHSF1, 100 nM	106
sgRNA knockout: sgHSF1, 1000 nM	97.1
sgRNA knockout: sgHSF1, 10000 nM	84.09
sgRNA knockout: sgHSF2, 10 nM	93.6
sgRNA knockout: sgHSF2, 100 nM	101.7
sgRNA knockout: sgHSF2, 1000 nM	98.2
sgRNA knockout: sgHSF2, 10000 nM	83.8
sgRNA knockout: sgKEAP1, 10 nM	106
sgRNA knockout: sgKEAP1, 100 nM	101
sgRNA knockout: sgKEAP1, 1000 nM	86.1
sgRNA knockout: sgKEAP1, 10000 nM	80.4
sgRNA knockout: sgNFE2L2, 10 nM	107
sgRNA knockout: sgNFE2L2, 100 nM	93.8
sgRNA knockout: sgNFE2L2, 1000 nM	102
sgRNA knockout: sgNFE2L2, 10000 nM	77.5
sgRNA knockout: sgSLC35F2, 10 nM	96.89
sgRNA knockout: sgSLC35F2, 100 nM	98.8
sgRNA knockout: sgSLC35F2, 1000 nM	102
sgRNA knockout: sgSLC35F2, 10000 nM	81.5
sgRNA knockout: sgXBP1, 10 nM	105
sgRNA knockout: sgXBP1, 100 nM	91.7
sgRNA knockout: sgXBP1, 1000 nM	95.9
sgRNA knockout: sgXBP1, 10000 nM	82.6

O=C1c2c(O)ccc(O)c2C(=O)c2c(NCCNCCO)ccc(NCCNCCO)c21 [Mitoxantrone]
Settings	relative cell number
sgRNA knockout: sgATF3, 10 nM	34.3
sgRNA knockout: sgATF3, 100 nM	27.6
sgRNA knockout: sgATF3, 1000 nM	9.76
sgRNA knockout: sgATF3, 10000 nM	7.51
sgRNA knockout: sgATF4, 10 nM	36.8
sgRNA knockout: sgATF4, 100 nM	30.1
sgRNA knockout: sgATF4, 1000 nM	9.3
sgRNA knockout: sgATF4, 10000 nM	6.75
sgRNA knockout: sgATF6, 10 nM	39.2
sgRNA knockout: sgATF6, 100 nM	25.8
sgRNA knockout: sgATF6, 1000 nM	9.11
sgRNA knockout: sgATF6, 10000 nM	9.24
sgRNA knockout: sgATG7, 10 nM	39.5
sgRNA knockout: sgATG7, 100 nM	31.96
sgRNA knockout: sgATG7, 1000 nM	9.06
sgRNA knockout: sgATG7, 10000 nM	7.85
sgRNA knockout: sgERN1, 10 nM	33.5
sgRNA knockout: sgERN1, 100 nM	29.588
sgRNA knockout: sgERN1, 1000 nM	10
sgRNA knockout: sgERN1, 10000 nM	7.25
sgRNA knockout: sgHSF1, 10 nM	50.3
sgRNA knockout: sgHSF1, 100 nM	28.7
sgRNA knockout: sgHSF1, 1000 nM	5.68
sgRNA knockout: sgHSF1, 10000 nM	9.98
sgRNA knockout: sgHSF2, 10 nM	39.8
sgRNA knockout: sgHSF2, 100 nM	28.9
sgRNA knockout: sgHSF2, 1000 nM	10.3
sgRNA knockout: sgHSF2, 10000 nM	8.52
sgRNA knockout: sgKEAP1, 10 nM	43.88
sgRNA knockout: sgKEAP1, 100 nM	27.8
sgRNA knockout: sgKEAP1, 1000 nM	8.61
sgRNA knockout: sgKEAP1, 10000 nM	8.22
sgRNA knockout: sgNFE2L2, 10 nM	34.6
sgRNA knockout: sgNFE2L2, 100 nM	31.6
sgRNA knockout: sgNFE2L2, 1000 nM	9.27
sgRNA knockout: sgNFE2L2, 10000 nM	7.216
sgRNA knockout: sgSLC35F2, 10 nM	37.8
sgRNA knockout: sgSLC35F2, 100 nM	31.6
sgRNA knockout: sgSLC35F2, 1000 nM	8.3
sgRNA knockout: sgSLC35F2, 10000 nM	6.34
sgRNA knockout: sgXBP1, 10 nM	34.9
sgRNA knockout: sgXBP1, 100 nM	32.2
sgRNA knockout: sgXBP1, 1000 nM	9.27
sgRNA knockout: sgXBP1, 10000 nM	7.03
